{"source": "PubChem BioAssay AID686938 (Drosophila RNAi Screening Center, 2013)", "purpose": "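Fly genes required for calcium entry once internal stores are emptied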 (primary screen)", "system": "Drosophila S2R+ cells", "reagent": "long dsRNA against Drosophila genes, about 0.25 µg dsRNA per well, roughly 10,000 cells", "timing": "5 days of knock-down before the calcium assay", "challenge": "thapsigargin (SERCA pump blocker) to empty calcium stores; entry signal taken 4 min after adding it", "measured": "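Duplicate raw fluo-4 intensities per well from a plate reader, at rest and four minutes after thapsigargin emptied calcium stores; entry-to-rest ratio filled for only some wells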", "scale": "calcium entry signal: higher = stronger calcium signal after store depletion; entry to resting ratio: higher = more calcium entry relative to resting level; resting calcium signal: higher = higher resting calcium signal", "units": "calcium entry signal in fluorescence units; resting calcium signal in fluorescence units", "active means": "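Called when the plate z-score of the entry-to-rest ratio, mean of duplicates, falls below −3; wells with low overall dye signal (Fmax z below −2) or more than five off-targets excluded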", "meaning of the calls": "active = strongly reduced calcium entry; inactive = no strong reduction", "note": "The deposit covers about 23,000 reagents; shown is an unselected part of those with a known target gene and a result. Of all reagents, 75 (0.33%) got an active call. 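Raw plate signals without normalisation; calls rest on plate z-scores that were not deposited; ratio present for only 364 wells.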 Unmarked entries are inactive. Names joined by + are all predicted targets of the reagent. Not stated in the record: the dose of the treatment."}
{"Gene": "CG16790", "amplicon": "DRSC15156", "calcium entry signal, replicate 1": 3.60e7, "calcium entry signal, replicate 2": 2.92e7, "resting calcium signal, replicate 1": 1.78e7, "resting calcium signal, replicate 2": 1.59e7}
{"Gene": "awd", "amplicon": "DRSC16906", "calcium entry signal, replicate 1": 2.67e7, "calcium entry signal, replicate 2": 4.21e7, "entry to resting ratio": 1.9, "resting calcium signal, replicate 1": 1.38e7, "resting calcium signal, replicate 2": 1.73e7}
{"Gene": "CG12640", "amplicon": "DRSC17847", "calcium entry signal, replicate 1": 2.81e7, "calcium entry signal, replicate 2": 6.67e7, "resting calcium signal, replicate 1": 1.68e7, "resting calcium signal, replicate 2": 2.86e7}
{"Gene": "Rsod", "amplicon": "DRSC15424", "calcium entry signal, replicate 1": 2.46e7, "calcium entry signal, replicate 2": 3.48e7, "resting calcium signal, replicate 1": 1.40e7, "resting calcium signal, replicate 2": 1.72e7}
{"Gene": "CG11068", "amplicon": "DRSC19369", "calcium entry signal, replicate 1": 2.50e7, "calcium entry signal, replicate 2": 2.99e7, "resting calcium signal, replicate 1": 1.44e7, "resting calcium signal, replicate 2": 1.31e7}
{"Gene": "CG18368", "amplicon": "DRSC06731", "calcium entry signal, replicate 1": 3.35e7, "calcium entry signal, replicate 2": 4.14e7, "resting calcium signal, replicate 1": 1.80e7, "resting calcium signal, replicate 2": 2.01e7}
{"Gene": "CG10195", "amplicon": "DRSC02026", "calcium entry signal, replicate 1": 6.38e7, "calcium entry signal, replicate 2": 4.90e7, "resting calcium signal, replicate 1": 3.03e7, "resting calcium signal, replicate 2": 2.03e7}
{"Gene": "Chrac-16", "amplicon": "DRSC20343", "calcium entry signal, replicate 1": 3.07e7, "calcium entry signal, replicate 2": 3.47e7, "resting calcium signal, replicate 1": 1.43e7, "resting calcium signal, replicate 2": 1.30e7}
{"Gene": "IKKepsilon", "amplicon": "DRSC03550", "calcium entry signal, replicate 1": 4.99e7, "calcium entry signal, replicate 2": 5.59e7, "resting calcium signal, replicate 1": 2.40e7, "resting calcium signal, replicate 2": 2.28e7}
{"Gene": "Sulf1", "amplicon": "DRSC13150", "calcium entry signal, replicate 1": 3.66e7, "calcium entry signal, replicate 2": 3.99e7, "resting calcium signal, replicate 1": 2.02e7, "resting calcium signal, replicate 2": 1.80e7}
{"Gene": "Sulf1", "amplicon": "DRSC16874", "calcium entry signal, replicate 1": 3.27e7, "calcium entry signal, replicate 2": 4.49e7, "resting calcium signal, replicate 1": 1.64e7, "resting calcium signal, replicate 2": 7.54e7}
{"Gene": "Dus1", "amplicon": "DRSC00623", "calcium entry signal, replicate 1": 5.54e7, "calcium entry signal, replicate 2": 5.66e7, "resting calcium signal, replicate 1": 2.54e7, "resting calcium signal, replicate 2": 2.41e7}
{"Gene": "CG42372 + CG30100", "amplicon": "DRSC05602", "calcium entry signal, replicate 1": 1.52e7, "calcium entry signal, replicate 2": 5.05e7, "resting calcium signal, replicate 1": 7.87e6, "resting calcium signal, replicate 2": 2.96e7}
{"Gene": "CG3918", "amplicon": "DRSC18331", "calcium entry signal, replicate 1": 2.28e7, "calcium entry signal, replicate 2": 2.06e7, "resting calcium signal, replicate 1": 1.24e7, "resting calcium signal, replicate 2": 1.17e7}
{"Gene": "CG3918", "amplicon": "DRSC23159", "calcium entry signal, replicate 1": 3.03e7, "calcium entry signal, replicate 2": 4.59e7, "resting calcium signal, replicate 1": 1.47e7, "resting calcium signal, replicate 2": 1.86e7}
{"Gene": "mRpS11", "amplicon": "DRSC15732", "calcium entry signal, replicate 1": 4.54e7, "calcium entry signal, replicate 2": 4.90e7, "resting calcium signal, replicate 1": 2.10e7, "resting calcium signal, replicate 2": 8.15e7}

Next part (4 carried over from the part before).
{"Gene": "CG42372 + CG30100", "amplicon": "DRSC05602", "calcium entry signal, replicate 1": 1.52e7, "calcium entry signal, replicate 2": 5.05e7, "resting calcium signal, replicate 1": 7.87e6, "resting calcium signal, replicate 2": 2.96e7}
{"Gene": "CG3918", "amplicon": "DRSC18331", "calcium entry signal, replicate 1": 2.28e7, "calcium entry signal, replicate 2": 2.06e7, "resting calcium signal, replicate 1": 1.24e7, "resting calcium signal, replicate 2": 1.17e7}
{"Gene": "CG3918", "amplicon": "DRSC23159", "calcium entry signal, replicate 1": 3.03e7, "calcium entry signal, replicate 2": 4.59e7, "resting calcium signal, replicate 1": 1.47e7, "resting calcium signal, replicate 2": 1.86e7}
{"Gene": "mRpS11", "amplicon": "DRSC15732", "calcium entry signal, replicate 1": 4.54e7, "calcium entry signal, replicate 2": 4.90e7, "resting calcium signal, replicate 1": 2.10e7, "resting calcium signal, replicate 2": 8.15e7}
{"Gene": "eIF6", "amplicon": "DRSC04674", "calcium entry signal, replicate 1": 1.99e7, "resting calcium signal, replicate 1": 1.02e7}
{"Gene": "Sh", "amplicon": "DRSC19214", "calcium entry signal, replicate 1": 2.21e7, "calcium entry signal, replicate 2": 2.69e7, "resting calcium signal, replicate 1": 1.52e7, "resting calcium signal, replicate 2": 1.58e7}
{"Gene": "Sh", "amplicon": "DRSC19220", "calcium entry signal, replicate 1": 2.73e7, "calcium entry signal, replicate 2": 2.50e7, "resting calcium signal, replicate 1": 1.44e7, "resting calcium signal, replicate 2": 1.28e7}
{"Gene": "Sh", "amplicon": "DRSC19785", "calcium entry signal, replicate 1": 4.16e7, "calcium entry signal, replicate 2": 3.50e7, "resting calcium signal, replicate 1": 2.03e7, "resting calcium signal, replicate 2": 1.32e7}
{"Gene": "Sh", "amplicon": "DRSC20055", "calcium entry signal, replicate 1": 3.12e7, "calcium entry signal, replicate 2": 2.91e7, "resting calcium signal, replicate 1": 1.69e7, "resting calcium signal, replicate 2": 1.38e7}
{"Gene": "Sh", "amplicon": "DRSC22567", "calcium entry signal, replicate 1": 4.26e7, "calcium entry signal, replicate 2": 3.52e7, "resting calcium signal, replicate 1": 2.12e7, "resting calcium signal, replicate 2": 1.52e7}
{"Gene": "Tango6", "amplicon": "DRSC02671", "calcium entry signal, replicate 1": 3.15e7, "resting calcium signal, replicate 1": 1.59e7}
{"Gene": "Ppcs", "amplicon": "DRSC14127", "calcium entry signal, replicate 1": 3.03e7, "calcium entry signal, replicate 2": 2.28e7, "resting calcium signal, replicate 1": 1.40e7, "resting calcium signal, replicate 2": 1.11e7}
{"Gene": "MED22", "amplicon": "DRSC18175", "calcium entry signal, replicate 1": 2.37e7, "calcium entry signal, replicate 2": 3.03e7, "entry to resting ratio": 1.9, "resting calcium signal, replicate 1": 1.28e7, "resting calcium signal, replicate 2": 1.36e7}
{"Gene": "Tep1", "amplicon": "DRSC03450", "calcium entry signal, replicate 1": 5.27e7, "calcium entry signal, replicate 2": 4.28e7, "resting calcium signal, replicate 1": 2.27e7, "resting calcium signal, replicate 2": 1.69e7}
{"Gene": "Nt5b", "amplicon": "DRSC19976", "calcium entry signal, replicate 1": 5.20e7, "calcium entry signal, replicate 2": 5.63e7, "resting calcium signal, replicate 1": 2.26e7, "resting calcium signal, replicate 2": 2.15e7}
{"Gene": "Nt5b", "amplicon": "DRSC19977", "calcium entry signal, replicate 1": 4.74e7, "calcium entry signal, replicate 2": 2.82e7, "resting calcium signal, replicate 1": 2.33e7, "resting calcium signal, replicate 2": 1.38e7}
{"Gene": "Nt5b", "amplicon": "DRSC19978", "calcium entry signal, replicate 1": 4.61e7, "calcium entry signal, replicate 2": 2.89e7, "resting calcium signal, replicate 1": 2.33e7, "resting calcium signal, replicate 2": 1.48e7}
{"Gene": "Nt5b", "amplicon": "DRSC22588", "calcium entry signal, replicate 1": 3.30e7, "calcium entry signal, replicate 2": 4.07e7, "resting calcium signal, replicate 1": 1.63e7, "resting calcium signal, replicate 2": 1.82e7}
